Test results reported in paper PMC10573436.
Results are given in words; binding and its absence hold for the method and conditions named. In cells and extracts the contact can be indirect. Some results given as binding are weak or reduced against the parent protein; the word gives no strength. Tags and fused reporters may be left off the sequences shown.

Chains of the proteins cited; added tags and fusions are not shown. Residues count along the entry.
UniProt P19525, residues 1-265: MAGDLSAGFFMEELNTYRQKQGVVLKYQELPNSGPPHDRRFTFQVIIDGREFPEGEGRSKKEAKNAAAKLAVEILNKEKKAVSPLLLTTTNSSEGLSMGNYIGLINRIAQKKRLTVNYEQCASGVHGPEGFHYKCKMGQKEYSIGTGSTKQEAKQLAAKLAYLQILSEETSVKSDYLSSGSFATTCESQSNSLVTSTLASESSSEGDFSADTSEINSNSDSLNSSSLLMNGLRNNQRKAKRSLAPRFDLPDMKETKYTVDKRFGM

T1: full-length PACT (PKR activator) fused to a nanoluciferase moiety, O75569
T1 chain: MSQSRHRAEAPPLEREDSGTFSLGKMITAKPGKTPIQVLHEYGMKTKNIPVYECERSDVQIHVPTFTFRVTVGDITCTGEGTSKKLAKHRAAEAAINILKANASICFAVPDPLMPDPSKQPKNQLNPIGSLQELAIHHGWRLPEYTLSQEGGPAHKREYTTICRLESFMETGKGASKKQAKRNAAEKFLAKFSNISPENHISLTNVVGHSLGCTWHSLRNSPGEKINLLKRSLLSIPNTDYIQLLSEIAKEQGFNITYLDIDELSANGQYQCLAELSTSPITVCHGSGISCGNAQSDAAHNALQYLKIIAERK

B1: retinoic acid-inducible gene I (RIG-I) fused to nanoluciferase moiety N2, O95786 1-925 (protein)
chain: MTTEQRRSLQAFQDYIRKTLDPTYILSYMAPWFREEEVQYIQAEKNNKGPMEAATLFLKFLLELQEEGWFRGFLDALDHAGYSGLYEAIESWDFKKIEKLEEYRLLLKRLQPEFKTRIIPTDIISDLSECLINQECEEILQICSTKGMMAGAEKLVECLLRSDKENWPKTLKLALEKERNKFSELWIVEKGIKDVETEDLEDKMETSDIQIFYQEDPECQNLSENSCPPSEVSDTNLYSPFKPRNYQLELALPAMKGKNTIICAPTGCGKTFVSLLICEHHLKKFPQGQKGKVVFFANQIPVYEQQKSVFSKYFERHGYRVTGISGATAENVPVEQIVENNDIIILTPQILVNNLKKGTIPSLSIFTLMIFDECHNTSKQHPYNMIMFNYLDQKLGGSSGPLPQVIGLTASVGVGDAKNTDEALDYICKLCASLDASVIATVKHNLEELEQVVYKPQKFFRKVESRISDKFKYIIAQLMRDTESLAKRICKDLENLSQIQNREFGTQKYEQWIVTVQKACMVFQMPDKDEESRICKALFLYTSHLRKYNDALIISEHARMKDALDYLKDFFSNVRAAGFDEIEQDLTQRFEEKLQELESVSRDPSNENPKLEDLCFILQEEYHLNPETITILFVKTRALVDALKNWIEGNPKLSFLKPGILTGRGKTNQNTGMTLPAQKCILDAFKASGDHNILIATSVADEGIDIAQCNLVILYEYVGNVIKMIQTRGRGRARGSKCFLLTSNAGVIEKEQINMYKEKMMNDSILRLQTWDEAVFREKILHIQTHEKFIRDSQEKPKPVPDKENKKLLCRKCKALACYTADVRVIEECHYTVLGDAFKECFVSRPHPKPKQFSSFEKRAKIFCARQNCSHDWGIHVKYKTFEIPVIKIESFVVEDIATGVQTLYSKWKDFHFEKIPFDPAEMSK
B2: retinoic acid-inducible gene I (RIG-I) fused to nanoluciferase moiety N2 (protein, UniProt O95786 1-925)
chain: B1 chain

Columns and labels:
[1] = molecular target: T1, full-length PACT (PKR activator) fused …; test: split reporter; conditions: remark: other sources report otherwise
[2] = molecular target: N-terminus of dsRNA-dependent protein kinase PKR, aa 1-265 (NtPKR), fused to a nanoluciferase moiety (UniProt P19525); test: split reporter

Row | Binder | binding [1] | binding [2]
1 | B1 | binds | 
2 | B2 |  | binds
